These are yes or no findings as the source states them, for the method shown.
Columns and labels:
Assay in all cases: condition: competitor series starting at approximately 1000:1 over biotinylated human IgE; DELFIA epitope competition; no inhibition of biotinylated IgE binding to immobilised antibody
[1] = biological target: purified human IgM (Calbiochem) (human)
[2] = biological target: purified human IgA (Calbiochem) (human)
[3] = biological target: purified human IgG (Calbiochem) (human)
[4] = biological target: purified human IgD (Calbiochem) (human)

binding [1]: no binding
binding [2]: no binding
binding [3]: no binding
binding [4]: no binding
B1: Antibody 1 IgG (antibody, V domains shown)
VH: QVQLVQSGAEVKKPGATVKLSCKVYGYIFTDYNIYWVRQAPGKGLEWMGLIDPDNGETFYAEKFQGRATMTADTSSDRAYMELTSLTFEDTATYYCATVLHRRLKGGYDYWGRGTLVTVSS
VL: QSVLTQPPSVSGAPGQRVTISCTGSSSNIGAGYDVHWYQQLPGTAPKLLIYDNFNRPSGVPDRFSGSKSGTSASLAIIGLQTEDEADYYCQSYDSSLSGSLFGTGTKLTVL

— patent publication US20140127212A1
